Measured values: PubChem BioAssay AID1347075 (National Center for Advancing Translational Sciences (NCATS), 2019)
The campaign covered roughly 400,000 compounds. About 5,500 (1.4%) were called active. Inconclusive results, whose numbers are uncertain, are shown with a selection of clear calls. Calls come from the whole dose curve; as a rule, active = well fitted cell-killing curve with a large enough effect; inconclusive = small, poorly fitted or top-dose-only effect, or effect the other way; inactive = flat fitted curve, though single readings scatter. Where the call is inconclusive, the potency comes from a doubtful curve fit.

Assay: qHTS assay for MDR1-selective chemotherapeutics: Primary screen using the parental adenocarcinoma cell KB-3-1; note: nearly all actives have a fitted effect of over 60% in size
Conditions: KB-3-1 viability, CellTiter-Glo ATP luminescence, 72 h; activity change, negative = cytotoxic: at 46.1 µM (top of the series)
In short: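 Multi-concentration cytotoxicity screen in KB-3-1 cells grown in DMEM lacking phenol red with 10% FBS. After 72 h at 37 °C with compound, ATP-dependent luminescence was recorded.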
% is set by controls: 0 for no effect and ±100 for the full control effect; potency is the fitted concentration of half-maximal effect.

Row | Structure (SMILES) | Potency | activity change, negative = cytotoxic
1 | COc1ccc(C2CC(=O)c3cnc(NC(=O)c4ccccc4)nc3C2)c(OC)c1 (centres undefined) | inconclusive: 20.6 µM [cytotoxic, single point] | –
2 | Cc1ccc(S(=O)(=O)N2CCN(CC(=O)NC3CCCc4ccccc43)CC2)cc1C (centres undefined) | inconclusive: 29.1 µM [cytotoxic, single point] | –
3 | CCOC(=O)c1[nH]ncc1CN1CCCC(C(=O)c2ccc(SC)cc2)C1 (centres undefined) | inconclusive: 29.1 µM [rising, single point] | –
4 | Cc1cccc(NC(=O)c2nc[nH]c2C(=O)N[C@@H](C)CO)c1 | inactive | –
5 | CCCCCOc1ccc(C(=O)OC(C)C(=O)NCc2ccco2)cc1 (centres undefined) | inconclusive: 16.4 µM [cytotoxic, partial curve] | –
6 | COc1cccc(NC(=O)Cn2c(=O)n(-c3ccc(C)cc3)c(=O)c3ccccc32)c1 | inconclusive: 18.4 µM [cytotoxic, single point] | –
7 | Cc1ccsc1/C=N/n1c(=S)[nH]nc(C)c1=O | inconclusive: 8.2 µM [rising, partial curve] | –
8 | O=C(O)c1ccc(NCc2cccs2)cc1 | inactive | –
9 | O=C(COC(=O)Cc1ccccc1[N+](=O)[O-])NCc1ccc(F)cc1 | inactive | –
10 | Cc1ccc(C(=O)N/N=C\c2ccc([N+](=O)[O-])s2)cn1 | inconclusive: 23.1 µM [cytotoxic, single point] | –
11 | Cc1ccccc1NC(=O)CSc1nccn1C | inconclusive: 29.1 µM [rising, single point] | –
12 | C[C@H](CO)N1C[C@H](C)[C@@H](CN(C)C(=O)C2CC2)OCc2cnnn2CCCC1=O | inactive | –
13 | CCN1C(=O)/C(=C\N(C(C)=O)c2ccccc2)OC1=S | inactive | –
14 | Cn1c(=O)[nH]c(=O)c2c1ncn2CCCc1ccccc1 | inconclusive: 16.4 µM [cytotoxic, single point] | –
15 | COCC(=O)n1nc(-c2ccc(Cl)cc2)nc1NCc1ccc(F)cc1 | inconclusive: 29.1 µM [cytotoxic, single point] | –
16 | CN1CCN(C(c2ccc(Cl)cc2)c2cc(Cl)c3cccnc3c2O)CC1 (centres undefined) | inconclusive: 18.4 µM [cytotoxic, single point] | –
17 | O=[N+]([O-])c1c(NCCCO)cc(Sc2ccc(Cl)cc2)c2nonc12 | inconclusive: 29.1 µM [cytotoxic, single point] | –
18 | CCCOc1ccc(NC(=O)CC2C(=O)N(CC)C(=S)N2Cc2cccs2)cc1 (centres undefined) | inconclusive: 29.1 µM [cytotoxic, single point] | –
19 | O=C(c1cccc(S(=O)(=O)N2CCCC2)c1)c1cccc(S(=O)(=O)N2CCCC2)c1 | inconclusive: 18.4 µM [cytotoxic, partial curve, poor fit] | –
20 | CCSc1nnc(COc2ccccc2)n1CC | inconclusive: 20.6 µM [cytotoxic, single point] | –
21 | O=C(O)COc1ccccc1C(Nc1cccnc1)c1cc(Cl)c2cccnc2c1O (centres undefined) | inactive | –
22 | O=C(O)C1=CC2C=C(Cl)C=CC2OC1=O (centres undefined) | inactive | –
23 | C=CCOC(=O)C1=C(C)NC(SC)=C(C#N)C1c1ccc(OCC)cc1 (centres undefined) | inactive | –

Row | Structure (SMILES) | Potency | activity change, negative = cytotoxic
24 | O=C(Cc1ccc(F)cc1)N1CCN=C1SCc1ccc([N+](=O)[O-])cc1 | inactive | –
25 | CCOC(=O)c1nc(S(C)(=O)=O)ncc1N1CCOCC1 | inactive | –
26 | Cc1c(C(=O)Nc2cccc(C(F)(F)F)c2)sc2nc3n(c(=O)c12)CCC3 | inconclusive: 10.3 µM [cytotoxic, single point] | –
27 | C(=C\c1ccc2ccccc2n1)/c1cccnc1 | inconclusive: 20.6 µM [cytotoxic, single point] | –
28 | O=C(Nc1ccc(O)c2c(=O)cc(-c3cccc(Cl)c3)oc12)c1cccc(Cl)c1 | inconclusive: 29.1 µM [cytotoxic, single point] | –
29 | Cn1nc(C(F)(F)F)cc1C(=O)Nc1ccc(Cl)cc1 | inactive | –
30 | CCCCCCCCCCCCCCCC[n+]1ccc(C)c2ccccc21 | active: 3.66 µM | –
31 | Cn1c(SCc2cccc([N+](=O)[O-])c2)nc2c(c1=O)SCC2 | inconclusive: 20.6 µM [cytotoxic, single point] | –
32 | COc1ccc(Nc2nc(N)c([N+](=O)[O-])c(NCCO)n2)cc1 | – | inconclusive: 35.6%
33 | Cc1cccc(C)c1NS(=O)(=O)c1cc2c3c(c1)CCN3C(=O)CC2 | inconclusive: 32.6 µM [rising, single point] | –
34 | CCCNC(=O)c1nnsc1S(=O)(=O)c1ccc(Cl)cc1 | inconclusive: 20.6 µM [cytotoxic, single point] | –
35 | COc1cc2nc(=S)n3[nH]c(COc4ccccc4C)nc3c2cc1OC | inconclusive: 29.1 µM [cytotoxic, single point] | –
36 | COc1cc(CNc2ccc(S(N)(=O)=O)cc2)ccc1OCc1ccccc1F | inconclusive: 29.1 µM [cytotoxic, single point] | –
37 | Cc1cc(Br)ccc1SCC(=O)OCC(=O)Nc1ccc2[nH]c(=O)[nH]c2c1 | inactive | –
38 | COc1cc([N+](=O)[O-])ccc1NC(=O)N1CCCCCC1 | inactive | –
39 | O=C(Nc1nc2ccccc2c(=O)[nH]1)c1ccccc1SCc1ccccc1 | inconclusive: 16.4 µM [cytotoxic, single point] | –
40 | CSC1=NC(C(Cl)(Cl)Cl)N=C(c2ccc(C)cc2)N1 (centres undefined) | active: 1.03 µM | –
41 | CCOC(=O)NC(N(O)c1cccc(Cl)c1)C(Cl)(Cl)Cl (centres undefined) | inactive | –
42 | CC(=O)Nc1ccc(OCC(O)CN2CCN(c3cc(Cl)ccc3C)CC2)cc1 (centres undefined) | inconclusive: 20.6 µM [cytotoxic, partial curve] | –
43 | O=C(NCc1ccc2c(c1)CCN2C(=O)c1ccc(F)cc1)c1c(F)cccc1F | inconclusive: 10.3 µM [cytotoxic, partial curve, poor fit] | –
44 | COc1ccc(C(c2nnnn2C2CCCCC2)N2CCN(c3ccc(OC)cc3)CC2)cc1 (centres undefined) | inconclusive: 13 µM [cytotoxic, partial curve] | –
45 | COc1ccc(CNC(=O)c2sc(=O)n(Cc3ccc(S(=O)(=O)N(C)C)cc3)c2C)cc1 | inconclusive: 5.8 µM [cytotoxic, full curve] | –
46 | CCOC(=O)c1[nH]c(C)c(C(=O)Nc2cccc(Cl)c2C)c1C | active: 5.8 µM | –

Of the compounds above, three have a COOH group.
Row | Structure (SMILES) | Potency | activity change, negative = cytotoxic
8 | O=C(O)c1ccc(NCc2cccs2)cc1 | inactive | –
21 | O=C(O)COc1ccccc1C(Nc1cccnc1)c1cc(Cl)c2cccnc2c1O (centres undefined) | inactive | –
22 | O=C(O)C1=CC2C=C(Cl)C=CC2OC1=O (centres undefined) | inactive | –

Pulled one by one from above:
Row | Structure (SMILES) | Potency | activity change, negative = cytotoxic
41 | CCOC(=O)NC(N(O)c1cccc(Cl)c1)C(Cl)(Cl)Cl (centres undefined) | inactive | –
29 | Cn1nc(C(F)(F)F)cc1C(=O)Nc1ccc(Cl)cc1 | inactive | –

Later entries.

Row | Structure (SMILES) | Potency | activity change, negative = cytotoxic
47 | COc1ccc(S(=O)(=O)N(C)c2ccc(C(=O)Nc3cccnc3)cc2)cc1OC | inconclusive: 23.1 µM [rising, single point] | –
48 | CC(C)(C)OC(=O)N1CCC(c2cc(=O)n3[nH]c(-c4ccc(Cl)cc4)cc3n2)CC1 | inconclusive: 29.1 µM [cytotoxic, partial curve, poor fit] | –
49 | Cc1ccc(Cl)cc1NC(=S)NCCCSC1CCCCC1 | inconclusive: 32.6 µM [cytotoxic, single point] | –
50 | Cc1cccc(N2CCN(C(=O)CCN3C(=O)C4C5C=CC(C5)C4C3=O)CC2C)c1 (centres undefined) | inactive | –
51 | COc1ccc(C(=O)NCCCNC(=O)c2ccco2)cc1OC | inconclusive: 14.6 µM [rising, partial curve] | –
52 | COc1ccc(N2C(=O)CSC2c2ccc3c(c2)OCO3)c(OC)c1 (centres undefined) | inconclusive: 25.9 µM [cytotoxic, single point] | –
53 | COc1cccc(Cn2cnc(-c3ccccc3OC)c2-c2cc(C)cc(C)c2)c1 | inconclusive: 18.4 µM [cytotoxic, single point] | –
54 | CN(c1cccc(NC(=O)CN(c2cccc(Cl)c2)S(=O)(=O)c2ccc(Cl)cc2)c1)S(C)(=O)=O | inconclusive: 20.6 µM [cytotoxic, single point] | –
55 | Cn1c(=O)[nH]c(=O)c2c1nc(Br)n2CCSc1nc2ccccc2o1 | inconclusive: 9.2 µM [rising, partial curve] | –
56 | C=CCN1C(c2ccc(Br)cc2)=CS/C1=C(/C#N)c1nnc(N2CCOCC2)n1-c1ccccc1 | inactive | –
57 | COc1ccc(NC(=O)NC23CC4(C)CC(C)(CC(C)(C4)C2)C3)cc1 | inconclusive: 16.4 µM [cytotoxic, single point] | –
58 | CC(=O)Nc1ccc(NC(=O)CSc2ncc(C(=O)Nc3ccccc3)c(=O)n2C)cc1 | inconclusive: 29.1 µM [cytotoxic, single point] | –
59 | Nc1cc2c(cc1C(=O)c1ccc(Cl)cc1)OCCO2 | inconclusive: 16.4 µM [cytotoxic, partial curve, poor fit] | –
60 | CCC(C)[C@H](NC(=O)N1CCN(c2cccc(C(F)(F)F)c2)CC1)C(=O)OC (some centres undefined) | inactive | –
61 | CCSC(=S)c1c(C)[nH]n(-c2ccccc2)c1=O | inconclusive: 18.4 µM [cytotoxic, single point] | –
62 | CSc1cccc(Nc2cc(C(=O)NC3CCCCC3)c3ccccc3n2)c1 | – | inconclusive: -16.3%
63 | Cc1nccn1-c1ccc(C(F)(F)F)cc1[N+](=O)[O-] | inconclusive: 20.6 µM [cytotoxic, partial curve, poor fit] | –
64 | CCCCn1c2ccc(C)cc2c2nnc(SCCN3CCCCC3)nc21 | active: 18.4 µM | –
65 | COc1ccc([N+](=O)[O-])cc1N(CC(O)CN(CC(C)C)CC(C)C)S(=O)(=O)c1ccc(C)cc1 (centres undefined) | inconclusive: 29.1 µM [cytotoxic, single point] | –
66 | C[C@@H]1CN([C@@H](C)CO)C(=O)CCCn2nncc2CO[C@H]1CN(C)S(C)(=O)=O | inconclusive: 0.82 µM [rising, full curve] | –
67 | CC(OC(=O)c1cccc(S(=O)(=O)Nc2cccc(C(F)(F)F)c2)c1)C(=O)Nc1ccc2c(c1)OCCO2 (centres undefined) | inconclusive: 25.9 µM [cytotoxic, single point] | –
68 | COc1ccc(Cl)cc1Nc1nc(N)nc(C(F)(F)F)n1 | inconclusive: 23.1 µM [cytotoxic, single point] | –
69 | O=C(Nc1nnc(-c2ccccc2SCc2ccccc2F)s1)Nc1ccccc1F | inconclusive: 20.6 µM [cytotoxic, single point] | –
